# At least one peptide structure holds a part that was inferred or is arguable (an end, a ring closure or a residue). Starred links: 1 amine or outer side, 2 acyl side, 3 side chain; linkers in the order of their positions; H or OH if unused. Residues, ends and D or L forms follow the SMILES beside them. *: point of attachment. Doxorubicin(3'-N) = COc1cccc2c1C(=O)c1c(O)c3c(c(O)c1C2=O)C[C@@](O)(C(=O)CO)C[C@@H]3O[C@H]1C[C@H](N*)[C@H](O)[C@H](C)O1; Morpholide = C1CN(*)CCO1; CO = O=C([*:1])[*:2]
# System: TSU-Pr1 cells
# Experiment: Clonogenic survival of TSU-Pr1 cells after 48 hr exposure to doxorubicin prodrugs with or without exogenously added PSA
# Format: cell-based, human
# Settings: for number of TSU-Pr1 colonies after 48 hours treatment, with PSA (30 μg/ml): with 30 μg/ml enzymatically active PSA
# Procedure: The androgen responsive PSA-producing LNCaP and androgen independent PSA non-producing TSU-Pr1 are human prostate cancer lines were obtained from ATCC (Rockville, Md.) and maintained by serial passage in RPMI 1640 media containing 10% fetal calf serum with 100 units/ml penicillin G, and 100 units/ml streptomycin sulfate (antibiotics from M.A. Bioproducts, Walkerville, Md.) as standard media in 5% CO2/95% air at 37° C. The origins and characteristics of the LNCaP and TSU-Pr1 cell lines are described in Horoszewicz, et al., Cancer Res., 43:1809-1818, (1980)and Iizumi, et al., J. Urol, 137: 1304-1306, (1987).
# Percentage clonogenic survival of TSU-Pr1 (2×10^5 cells) following 48 hr. exposure to varying concentrations of doxorubicin prodrugs with or without exogenously added PSA was performed as described in Martikainen et al., Cancer Res., 51:4693-4700, (1991).
# Results for Mu-His-Ser-Ser-Lys-Leu-Gln-doxorubicin (SEQ ID NO:16) at 50 μM, were 122 colonies for treatment without PSA, and 110 colonies for treatment with 30 μg/ml enzymatically active PSA. Results are shown as averages (n=5) with standard error of 2 to 7. Assays were done in triplicate.
smiles,measurement,setting,value
"COc1cccc2c1C(=O)c1c(O)c3c(c(O)c1C2=O)C[C@@](O)(C(=O)CO)C[C@@H]3O[C@H]1C[C@H](NC(=O)[C@H](CC(C)C)NC(=O)[C@H](CCC(N)=O)NC(=O)[C@H](CC(C)C)NC(=O)[C@H](CCCCN)NC(=O)[C@H](CO)NC(=O)[C@H](CO)NC(=O)[C@H](Cc2c[nH]cn2)NC(=O)N2CCOCC2)[C@H](O)[C@H](C)O1 [Mu-HSSKLQ-Leu-Doxorubicin, Mu-His-Ser-Ser-Lys-Leu-Gln-Leu-doxorubicin] ({Morpholide-CO}-HSSKLQL-{Doxorubicin(3'-N)})","number of TSU-Pr1 colonies after 48 hours treatment, with PSA (30 μg/ml)",50 nM prodrug,90 colonies
same,"number of TSU-Pr1 colonies after 48 hours treatment, without PSA",50 nM prodrug,110 colonies
same,"number of TSU-Pr1 colonies after 48 hours treatment, with PSA (30 μg/ml)",100 nM prodrug,87 colonies
same,"number of TSU-Pr1 colonies after 48 hours treatment, without PSA",100 nM prodrug,127 colonies
same,"number of TSU-Pr1 colonies after 48 hours treatment, with PSA (30 μg/ml)",250 nM prodrug,50 colonies
same,"number of TSU-Pr1 colonies after 48 hours treatment, without PSA",250 nM prodrug,123 colonies
same,"number of TSU-Pr1 colonies after 48 hours treatment, with PSA (30 μg/ml)",500 nM prodrug,18 colonies
same,"number of TSU-Pr1 colonies after 48 hours treatment, without PSA",500 nM prodrug,117 colonies
same,"number of TSU-Pr1 colonies after 48 hours treatment, with PSA (30 μg/ml)",1000 nM prodrug,10 colonies
same,"number of TSU-Pr1 colonies after 48 hours treatment, without PSA",1000 nM prodrug,118 colonies

# Reference: patent publication US6545131B1, “Tissue specific prodrug” (priority 1997, dated 2003)
